Source: patent US20120231005A1 (Merck Sharp & Dohme, published 2012)
Residue numbers refer to the chain shown, from its start. These are yes or no findings as the source states them, for the method shown. Some entries that bind do so weakly or less than the wild type. One block for each binder: values may come before it.

Chains of the proteins cited; added tags and fusions are not shown. Lines headed by an entry give the natural chain unless they say otherwise; changes in a name come on top. A line that says so, or that is headed by a name, gives the form on record, which may keep a tag or linker.
UniProt Q8NBP7: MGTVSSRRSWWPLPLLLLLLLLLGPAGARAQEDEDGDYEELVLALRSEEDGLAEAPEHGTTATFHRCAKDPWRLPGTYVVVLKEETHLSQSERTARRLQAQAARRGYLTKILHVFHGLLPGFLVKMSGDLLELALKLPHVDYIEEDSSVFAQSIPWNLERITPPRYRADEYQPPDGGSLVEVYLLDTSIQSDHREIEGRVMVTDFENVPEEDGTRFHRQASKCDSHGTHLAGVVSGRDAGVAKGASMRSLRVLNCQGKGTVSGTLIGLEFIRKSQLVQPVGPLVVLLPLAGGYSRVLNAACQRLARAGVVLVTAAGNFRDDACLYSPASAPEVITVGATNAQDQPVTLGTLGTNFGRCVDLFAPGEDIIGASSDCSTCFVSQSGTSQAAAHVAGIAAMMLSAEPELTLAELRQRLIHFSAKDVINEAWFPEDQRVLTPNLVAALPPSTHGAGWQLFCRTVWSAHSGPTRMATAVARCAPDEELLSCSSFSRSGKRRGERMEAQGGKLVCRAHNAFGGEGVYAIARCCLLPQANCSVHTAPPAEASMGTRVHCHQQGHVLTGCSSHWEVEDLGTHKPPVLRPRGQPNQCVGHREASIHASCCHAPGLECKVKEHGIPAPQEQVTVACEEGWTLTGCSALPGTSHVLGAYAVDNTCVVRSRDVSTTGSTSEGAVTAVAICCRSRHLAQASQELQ
M1 (Q8NBP7, form named): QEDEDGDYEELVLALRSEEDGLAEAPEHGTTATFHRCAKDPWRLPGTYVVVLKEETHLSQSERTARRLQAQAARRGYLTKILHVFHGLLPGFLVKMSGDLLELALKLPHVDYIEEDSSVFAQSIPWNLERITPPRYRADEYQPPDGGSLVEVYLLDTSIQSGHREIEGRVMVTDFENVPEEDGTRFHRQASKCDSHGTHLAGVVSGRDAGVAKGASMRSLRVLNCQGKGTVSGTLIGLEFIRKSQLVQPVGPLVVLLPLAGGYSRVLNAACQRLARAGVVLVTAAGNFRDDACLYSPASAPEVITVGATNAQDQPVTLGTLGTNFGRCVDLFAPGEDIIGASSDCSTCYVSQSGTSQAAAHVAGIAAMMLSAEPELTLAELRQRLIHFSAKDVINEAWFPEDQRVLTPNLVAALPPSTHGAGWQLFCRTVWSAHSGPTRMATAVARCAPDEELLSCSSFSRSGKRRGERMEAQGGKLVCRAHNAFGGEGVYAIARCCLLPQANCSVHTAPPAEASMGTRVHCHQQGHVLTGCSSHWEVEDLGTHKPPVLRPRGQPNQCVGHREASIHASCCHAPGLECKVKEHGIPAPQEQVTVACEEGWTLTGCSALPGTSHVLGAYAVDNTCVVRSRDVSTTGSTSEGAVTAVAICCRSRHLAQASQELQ

Key:
[1] = molecular target: T1, human PCSK9 (human, UniProt Q8NBP7 31-692, limits assumed); assay: ELISA: PCSK9 protein coated at 5 ug/ml, IgG titrated, anti-human kappa-HRP, OD450
[2] = molecular target: M3 (human) (UniProt Q8NBP7); assay: as above
[3] = molecular target: M5 (human) (UniProt Q8NBP7); assay: as above
[4] = molecular target: M4 (human) (UniProt Q8NBP7); assay: as above
[5] = molecular target: M1 (human) (UniProt Q8NBP7); assay: as above
[6] = molecular target: T1, human PCSK9; assay: affinity measurement, IgG2
[7] = molecular target: T1, human PCSK9; assay: recap of the Example 9 ELISA
[8] = molecular target: T1, human PCSK9; assay: Biacore epitope binning on immobilised human PCSK9

binding [1]: binds
binding [2]: binds
binding [3]: binds
binding [4]: binds
binding [5]: binds
binding [6]: binds
binding [7]: binds
B1: AX1DG IgG2 (antibody, V domains shown)
VH: EVQLLESGGGLVQPGGSLRLSCKASGFTFTSYYMHWVRQAPGKGLEWIGRINPDSGSTKYNEKFKGRATISRDNSKNTLYLQMNSLRAEDTAVYYCARGGRLSWDFDVWGQGTLVTVSS
VL: DIQMTQSPSSLSASVGDRVTITCRASQDISRYLAWYQQKPGKAPKLLIYAASSLQSGVPSRFSGSGSGTDFTLTISSLQPEDFATYYCAAYDYSLGGYVFGGGTKVEIK
notes: IgG2; also called AXIDG

binding [8]: binds
B2: AX191 Fab (Fab, V domains shown)
VH: EVQLLESGGGLVQPGGSLRLSCKASGYTFSSYWMHWVRQAPGKGLEWIGRIDPYNGGTKYNEKFKGKATISRDNSKNTLYLQMNSLRAEDTAVYYCARYGYYLGSYAMDYWGQGTLVTVSS
VL: B1 VL with R31K, A89Q, L95S, G96S, G97A
